Binding data for one molecule are collected here from patent publication US20210371867A1 (SYSMEX, published 2021).

In this experiment the target is T1, human CD80/B7-1 protein (His tag) (human, UniProt P33681 35-242).
T1 construct: Recombinant His-tagged protein used as the antigen solution; also called antigen
T1 sequence (looked up): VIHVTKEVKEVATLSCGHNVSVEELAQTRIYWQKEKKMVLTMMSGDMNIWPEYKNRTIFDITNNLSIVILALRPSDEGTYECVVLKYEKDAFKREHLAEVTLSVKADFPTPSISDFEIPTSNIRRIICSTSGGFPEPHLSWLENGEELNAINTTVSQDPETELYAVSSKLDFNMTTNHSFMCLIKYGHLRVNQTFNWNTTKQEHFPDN
The experiment in a line: sandwich chemiluminescence ELISA as in Test Example 1; comparison antibody as detection antibody. On the technique in general: In an ELISA, binding on a coated surface is turned into a signal by an enzyme label.

These are yes or no findings as the source states them, for the method shown. Some binding calls cover weakened binding; strength is not graded here. Where a sequence is shown, tags or fusion partners need not be part of it.

B1: ALP fusion antibody of Example 1 (Antibody Example 1-1), linker not stated: Fab of rabbit anti-CD80 antibody, Fd-linker-BIAPII (Fab, not shown: small tags and cut ends)
heavy (part 1 of 2): QSVEESGGRLVTPGTPLTLTCTASGFSLSNNAVSWVRQAPGEGLEWIGTISSNDNTYYATWAKGRFTISKTSTTVDLKITSPTTEDTATYFCAIYYYGYGYVFNLWGPGTLVTVSSGQPKAPSVFPLAPCCGDTPSSTVTLGCLVKGYLPEPVTVTWNSGTLTNGVRTFPSVRQSSGLYSLSSVVSVTSSSQPVTCNVAHPATNTKVDKTVAPSTCSKPT
heavy (part 2 of 2): LIPAEEENPAFWNRQAAQALDVAKKLQPIQTAAKNVILFLGDGMGVPTVTATRILKGQMNGKLGPETPLAMDQFPYVALSKTYNVDRQVPDSAGTATAYLCGVKGNYRTIGVSAAARYNQCNTTRGNEVTSVINRAKKAGKAVGVVTTTRVQHASPAGAYAHTVNRNWYSDADLPADAQKNGCQDIAAQLVYNMDIDVILGGGRMYMFPEGTPDPEYPDDASVNGVRKDKQNLVQEWQAKHQGAQYVWNRTALLQAADDSSVTHLMGLFEPADMKYNVQQDHTKDPTLAEMTEAALQVLSRNPRGFYLFVEGGRIDHGHHDGKAYMALTEAIMFDNAIAKANELTSELDTLILVTADHSHVFSFGGYTLRGTSIFGLAPGKALDSKSYTSILYGNGPGYALGGGSRPDVNGSTSEEPSYRQQAAVPLASETHGGEDVAVFARGPQAHLVHGVQEETFVAHIMAFAGCVEPYTDCNLPAPA
light: ELVMTQTPASVSEPVGGTVTINCQASEDIYSSLAWYQQKPGQRPKLLMYYASTLASGVPSRFKGSGSGTEFTLTISDLECADAATYYCQSYYLSSSSRYGNAFGGGTEVVVKGDPVAPTVLIFPPAADQVATGTVTIVCVANKYFPDVTVTWEVDGTTQTTGIENSKTPQNSADCTYNLSSTLTLTSTQYNSHKEYTCKVTQGTTSVVQSFIG
B1: the binding entry is on record as “binds”.
